From PubChem BioAssay AID504444 (National Center for Advancing Translational Sciences (NCATS), 2011)
Among all 360,000 compounds or so, about 7,500 (2.1%) were called active. Inconclusive means that the source gave no clear call. Such entries were picked first, then a sample of the others. The call rests on the fitted dose curve; in most records, active means well fitted inhibition curve with a large enough effect; inconclusive means small, poorly fitted or top-dose-only effect, or effect the other way; inactive means flat fitted curve, though single readings scatter. Potencies beside an inconclusive call are fits to weak or partial responses and may not hold up.

Assay: Nrf2 qHTS screen for inhibitors; further: nearly all actives have a fitted effect of over 60% in size
Conditions: A549 ARE-Fluc reporter, luciferase luminescence, 18-24 h; activity change, negative = inhibition: at 46 µM (top of the series)
Summary of the method: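 In this cell-based qHTS, ARE-driven firefly luciferase in A549 cells reports Nrf2 activity; the luminescent signal after BugLite lysis is the measured value, with a prior CellTiter-Fluor read for cell health.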
On the % scale 0 is the no-effect control and ±100 the full control effect; potency means the concentration at half of the fitted maximal effect.

Compound	Potency	activity change, negative = inhibition
COc1ccc(N2C3=[N+](CCCC3)CC2(C)O)cc1 (stereo unspecified)	inconclusive: 5.17 µM [falling, full curve]	
Cc1cc(OCCCCOc2ccc(C#N)cc2)ccc1[N+](=O)[O-]	inconclusive: 29.1 µM [falling, single point]	
COCCc1nc2ccc(C(=O)N3CCCC(CCCO)C3)cc2o1 (stereo unspecified)		inactive: 1.72%
O=C(NCCc1ccccc1)c1ccc2c(c1)N(Cc1ccc(Cl)cc1)C(=O)CS2		inactive: 14.3% [at 9.27 µM]
CCn1nc(C)cc1C(=O)N1CCc2c([nH]c3ccccc23)C1c1cc(F)ccc1F (stereo unspecified)	inconclusive: 16.4 µM [activator, partial curve]	
Cc1cccc(N2CCN(C(=S)NCCc3ccccc3)CC2)c1C		inactive: -3.35%
CC(=NNC(=S)N1CCC1)c1ccccn1	active: 0.13 µM	
COc1cccc(C(=O)NCC2OCCc3ccccc32)c1 (stereo unspecified)		inactive: 9.18%
O=S(=O)(c1cc(F)ccc1F)N1CCN(c2ccccn2)CC1		inactive: -1.61%
CCOC(=O)c1ccc(CC(=O)c2oc3cc(O)ccc3c2C)o1		inactive: -16.7%
O=C(Nc1ccccc1)OCC1CCCN2CCCCC12 (stereo unspecified)	inconclusive: 0.731 µM [falling, partial curve, poor fit]	
Cc1ccc(S(=O)(=O)N2[C@@H](c3ccc(C(C)C)cc3)C(C(=O)O)=C[C@H]2C(C)(C)C)cc1	inconclusive: 9.2 µM [falling, partial curve, poor fit]	
O=C(Nc1cccc2cccnc12)c1ccccc1	inconclusive: 7.31 µM [activator, single point]	
COc1ccc(N2CCN(C(=O)COc3cccc4ccccc34)CC2)cc1	active: 2.59 µM	
CCOc1cc(/C=C2\CCC/C(=C\c3cc(Cl)c(O)c(OCC)c3)C2=O)cc(Cl)c1O	inconclusive: 20.6 µM [falling, single point]	
CCCS(=O)(=O)c1c(S(=O)(=O)CCC)c2c(C)cccn2c1C(=O)OC		inactive: 8.71%
O=C(Nc1ccc(CN2CCOCC2)cc1)c1ccc(Br)cc1		inactive: -23%
COc1ccc(-c2nc(N3CCN(S(=O)(=O)c4ccccc4)CC3)c3ccccc3n2)cc1		inactive: -13.6%
CCN(CC)c1ccc(C=NNc2ccc([N+](=O)[O-])cn2)cc1	inconclusive: 4.61 µM [activator, full curve]	
CCCCN(CCCC)S(=O)(=O)c1ccc(C(=O)Nc2nnc(CSC)o2)cc1	active: 7.31 µM	
C=CCNC(=S)NNC(=O)c1cccn(Cc2ccc(Cl)c(Cl)c2)c1=O	inconclusive: 9.2 µM [falling, partial curve, poor fit]	
CCCC(CCC(=O)Nc1nccs1)C(=O)O (stereo unspecified)	inconclusive: 16.4 µM [falling, partial curve]	
CCN(CC(=O)Nc1cc(C)nn1-c1nc(C)cc(C)n1)Cc1ccccc1		inactive: 3.03%

A few values from the list:
activity change, negative = inhibition, COc1cccc(C(=O)NCC2OCCc3ccccc32)c1 (stereo unspecified) is entered as inactive: 9.18%
activity change, negative = inhibition, CCN(CC(=O)Nc1cc(C)nn1-c1nc(C)cc(C)n1)Cc1ccccc1 is entered as inactive: 3.03%

Remaining list, next part.

Compound	Potency	activity change, negative = inhibition
COc1ccc(C(=O)C2CCCN(S(=O)(=O)c3ccc(C(C)=O)cc3)C2)c(C)c1 (stereo unspecified)	active: 8.2 µM	
O=C(CCc1ccccc1)Nc1ncc([N+](=O)[O-])s1	inconclusive: 2.31 µM [activator, partial curve]	
Cc1ccc(-c2nn3c(-c4ccccc4C)nnc3c3ccccc23)cc1	inconclusive: 29.1 µM [falling, single point]	
CCOC(=O)c1cc(C(=O)NCc2ccc(Cl)cc2Cl)nn1C	active: 20.6 µM	
CC(C)(C)C(=O)Nc1sc2c(c1C(=O)Nc1ccccn1)CCCC2	inconclusive: 32.6 µM [activator, partial curve, poor fit]	
CS(=O)(=O)c1cccc(C(=O)Nc2cccc(S(=O)(=O)N3CCCC3)c2)c1	inconclusive: 2.59 µM [falling, partial curve]	
Fc1ccccc1C1CCN(Cc2nc(CC3CC3)no2)C1 (stereo unspecified)	inconclusive: 13 µM [activator, partial curve]	
CCOc1ccc(NC(=O)c2ccc(NC(=O)COC(=O)Cc3ccc(OC)cc3)cc2)cc1		inactive: 15.6%
O=C(NCCCn1ccnc1)c1ccc(N2CCCCC2)c([N+](=O)[O-])c1	inconclusive: 6.51 µM [falling, full curve]	
CC(C)c1nnc(NC(=O)c2c(O)c3cccc4c3n(c2=O)CCC4)s1	active: 16.4 µM	
O=S(=O)(c1ccccc1)[C@@]1(c2ccccc2)C[C@@H]2ON=C(c3cccc(Br)c3)[C@@H]2C1	inconclusive: 25.9 µM [falling, single point]	
Cc1ccc(CNc2ccc3c(c2)ncn3C(C)C)cc1	inconclusive: 7.31 µM [activator, partial curve]	
Cc1ccc(-c2cc(=O)[nH]c(NCc3ccccc3)n2)cc1	inconclusive: 25.9 µM [activator, single point]	
CN(Cc1ccccc1)CC1C2CCC(C2)C1O (stereo unspecified)		inactive: 2.5%
CCN(CC(=O)Nc1c(F)cccc1F)C(=O)c1cc(-c2cccs2)nn1-c1ccccc1	inconclusive: 20.6 µM [falling, single point]	
CCOC(=O)C1CCCN(CC(=O)Nc2c(C(=O)OC)[nH]c3ccc(Cl)cc23)C1 (stereo unspecified)		inactive: 1.86%
COc1ccc(C(C#N)N2CCC(c3ccccc3)=N2)cc1 (stereo unspecified)	inconclusive: 0.731 µM [activator, full curve, poor fit]	
O=C(CC(C(=O)O)c1c(F)cccc1Cl)c1ccc(Cl)cc1 (stereo unspecified)	inconclusive: 6.51 µM [falling, partial curve, poor fit]	
O=C(CCl)Nc1cccc(Oc2cnccn2)c1		inactive: -13%
COc1ccc(NC(=O)Nc2ccc3nccnc3c2)cc1	inconclusive: 29.1 µM [activator, single point]	
O=C(CCc1ccccc1)NCC(=O)N/N=C/c1ccc(O)cc1O	inconclusive: 14.6 µM [falling, partial curve, poor fit]	
Cc1c(OCC(=O)N(C)C)ccc2c(-c3ccccc3)cc(=O)oc12	inconclusive: 18.4 µM [falling, partial curve, poor fit]	
COc1cccc(NC(=O)CN(C)C(=O)c2cc(-c3ccccc3)nc3ccc(C)cc23)c1	inconclusive: 29.1 µM [falling, single point]	
